# PubChem BioAssay AID1259254 | NCATS – 2017
# Screen: 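Finding genes that stop cells copying their DNA twice in one cycle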 (primary screen)
# System: human HCT116 colorectal cancer cells
# Reagents: single siRNA against human genes
# Time to read-out: 3 days
# Measured: 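Nuclei stained with Hoechst and imaged; cell-cycle phase assigned by DNA content; G2 share scaled per plate, non-targeting siRNA 0%, GMNN siRNA 100%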
# Scale: G2 robust z-score and G2 cells, % of GMNN control: higher = more G2 cells, more excess DNA replication; raw share of cells in G2: higher = larger share of cells with G2 DNA content
# Call rule: 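Active siRNAs have a G2 robust z of 5 or more median absolute deviations over the median, which in these data means about 38% or higher of GMNN control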
# The deposit covers about 59,000 reagents; shown is an unselected part. About 1,550 of all reagents (2.6%) count as active. 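G2 share is only a proxy for re-replication; each gene was hit by three separate siRNAs, and active genes were retested.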 Raw values vary from plate to plate and are shown uncorrected. Reagents against one gene are numbered here. Reagent sequences are not shown. Not given: the amount of reagent.
target gene,reagent,G2 robust z-score,"G2 cells, % of GMNN control",raw share of cells in G2 (%),call
DNAJC5 (DnaJ heat shock protein family (Hsp40) member C5),1,0.444,6.09,4.94,inactive
DNAJC5 (DnaJ heat shock protein family (Hsp40) member C5),2,-0.966,-3.83,4.18,inactive
DNAJC5 (DnaJ heat shock protein family (Hsp40) member C5),3,-0.35,0.506,3.79,inactive
OR3A3 (olfactory receptor family 3 subfamily A member 3),1,-0.404,0.123,5.19,inactive
OR3A3 (olfactory receptor family 3 subfamily A member 3),2,-0.274,1.04,4.31,inactive
OR3A3 (olfactory receptor family 3 subfamily A member 3),3,-0.128,2.07,4.08,inactive
ZNF646 (zinc finger protein 646),1,-0.268,1.08,3.89,inactive
ZNF646 (zinc finger protein 646),2,-1.38,-6.71,3,inactive
ZNF646 (zinc finger protein 646),3,0.326,5.26,5.54,inactive
ENTHD1 (ENTH domain containing 1),1,0.0802,3.53,5.01,inactive
ENTHD1 (ENTH domain containing 1),2,1.53,13.7,7.16,inactive
ENTHD1 (ENTH domain containing 1),3,-1.07,-4.53,1.49,inactive
ZNF189 (zinc finger protein 189),1,0.0333,3.2,4.59,inactive
ZNF189 (zinc finger protein 189),2,0.419,5.91,8.62,inactive
ZNF189 (zinc finger protein 189),3,-0.142,1.97,4.16,inactive
FAM47B (family with sequence similarity 47 member B),1,3.67,28.8,16.8,inactive
FAM47B (family with sequence similarity 47 member B),2,0.285,4.97,6.52,inactive
FAM47B (family with sequence similarity 47 member B),3,-0.881,-3.23,4.42,inactive
ASCL4 (achaete-scute family bHLH transcription factor 4),1,-0.0168,2.85,5.23,inactive
ASCL4 (achaete-scute family bHLH transcription factor 4),2,2.25,18.8,8.93,inactive
ASCL4 (achaete-scute family bHLH transcription factor 4),3,0.122,3.82,2.94,inactive
P2RX6 (purinergic receptor P2X 6),1,-0.832,-2.88,4.24,inactive
P2RX6 (purinergic receptor P2X 6),2,-0.574,-1.07,4.42,inactive
P2RX6 (purinergic receptor P2X 6),3,-1.11,-4.85,2.48,inactive
CFAP418 (cilia and flagella associated protein 418),1,-0.391,0.215,3.68,inactive
CFAP418 (cilia and flagella associated protein 418),2,-1.23,-5.72,1.04,inactive
CFAP418 (cilia and flagella associated protein 418),3,-0.116,2.15,3.44,inactive
SLC47A1,1,0.24,4.66,6.31,inactive
SLC47A1,2,-0.677,-1.79,3.4,inactive
SLC47A1,3,0.0192,3.1,4.13,inactive
NEUROG3 (neurogenin 3),1,-0.545,-0.865,3.47,inactive
NEUROG3 (neurogenin 3),2,-0.493,-0.504,5.72,inactive
NEUROG3 (neurogenin 3),3,-1.17,-5.24,2.31,inactive
GNPDA1 (glucosamine-6-phosphate deaminase 1),1,1.06,10.5,9.15,inactive
GNPDA1 (glucosamine-6-phosphate deaminase 1),2,5.5,41.6,21.7,active
GNPDA1 (glucosamine-6-phosphate deaminase 1),3,0.342,5.38,5.03,inactive
TAS2R39 (taste 2 receptor member 39),1,-0.632,-1.48,3.1,inactive
TAS2R39 (taste 2 receptor member 39),2,1.02,10.1,6.96,inactive
TAS2R39 (taste 2 receptor member 39),3,-0.288,0.941,3.55,inactive
CT55P2 (CT55 pseudogene 2),1,0.924,9.47,7.44,inactive
CT55P2 (CT55 pseudogene 2),2,-0.896,-3.34,1.94,inactive
CT55P2 (CT55 pseudogene 2),3,1.24,11.7,6.24,inactive
PRKCI (protein kinase C iota),1,4.45,34.3,16.9,inactive
PRKCI (protein kinase C iota),2,-1.53,-7.77,2.79,inactive
PRKCI (protein kinase C iota),3,1.87,16.1,9.71,inactive
LIMS3 (LIM zinc finger domain containing 3),1,-0.89,-3.3,3.23,inactive
LIMS3 (LIM zinc finger domain containing 3),2,-1.12,-4.89,2.87,inactive
LIMS3 (LIM zinc finger domain containing 3),3,-0.702,-1.97,4.75,inactive
CHCHD10 (coiled-coil-helix-coiled-coil-helix domain containing 10),1,1.65,14.6,10.8,inactive
CHCHD10 (coiled-coil-helix-coiled-coil-helix domain containing 10),2,2.65,21.6,11.7,inactive
CHCHD10 (coiled-coil-helix-coiled-coil-helix domain containing 10),3,0.832,8.82,7.02,inactive
"SEC16A (SEC16 homolog A, endoplasmic reticulum export factor)",1,-0.561,-0.976,4.89,inactive
"SEC16A (SEC16 homolog A, endoplasmic reticulum export factor)",2,-0.574,-1.07,3.5,inactive
"SEC16A (SEC16 homolog A, endoplasmic reticulum export factor)",3,-0.486,-0.452,3.24,inactive
ZNF333 (zinc finger protein 333),1,0.195,4.34,4.32,inactive
ZNF333 (zinc finger protein 333),2,-1.12,-4.9,3.69,inactive
ZNF333 (zinc finger protein 333),3,-0.399,0.157,3.68,inactive
PKD1L2 (polycystin 1 like 2 (gene/pseudogene)),1,1.88,16.2,13.2,inactive
PKD1L2 (polycystin 1 like 2 (gene/pseudogene)),2,-0.149,1.92,5.79,inactive
PKD1L2 (polycystin 1 like 2 (gene/pseudogene)),3,2.87,23.1,13.2,inactive
F2RL1 (F2R like trypsin receptor 1),1,8.83,65.1,23.2,active
F2RL1 (F2R like trypsin receptor 1),2,-1.07,-4.58,4.2,inactive
F2RL1 (F2R like trypsin receptor 1),3,-0.932,-3.59,3.26,inactive
SNX4 (sorting nexin 4),1,-0.579,-1.1,3.16,inactive
SNX4 (sorting nexin 4),2,-1.24,-5.78,3.42,inactive
SNX4 (sorting nexin 4),3,0.304,5.11,5.48,inactive
PEAK1 (pseudopodium enriched atypical kinase 1),1,-0.214,1.46,6.04,inactive
PEAK1 (pseudopodium enriched atypical kinase 1),2,-0.0926,2.32,6.03,inactive
PEAK1 (pseudopodium enriched atypical kinase 1),3,1.4,12.8,7.79,inactive
RPL23AP14 (ribosomal protein L23a pseudogene 14),1,1.05,10.4,7.8,inactive
RPL23AP14 (ribosomal protein L23a pseudogene 14),2,-0.115,2.16,5.06,inactive
RPL23AP14 (ribosomal protein L23a pseudogene 14),3,1.26,11.9,8.06,inactive
LINC02245 (long independently transcribed non-coding RNA 2245),1,6.16,46.3,20.6,active
LINC02245 (long independently transcribed non-coding RNA 2245),2,0.367,5.55,5.72,inactive
LINC02245 (long independently transcribed non-coding RNA 2245),3,-0.553,-0.925,4.41,inactive
KLHDC8B (kelch domain containing 8B),1,-0.798,-2.65,1.92,inactive
KLHDC8B (kelch domain containing 8B),2,0.816,8.71,6.72,inactive
KLHDC8B (kelch domain containing 8B),3,1.02,10.1,6.35,inactive
GPT2 (glutamic--pyruvic transaminase 2),1,-0.28,0.998,4.56,inactive
GPT2 (glutamic--pyruvic transaminase 2),2,2.77,22.5,14.8,inactive
GPT2 (glutamic--pyruvic transaminase 2),3,0.087,3.58,6.11,inactive
RAMP2 (receptor activity modifying protein 2),1,-0.358,0.45,5.89,inactive
RAMP2 (receptor activity modifying protein 2),2,-1.44,-7.15,3.66,inactive
RAMP2 (receptor activity modifying protein 2),3,-0.976,-3.9,2.58,inactive
PGGT1B (protein geranylgeranyltransferase type I subunit beta),1,0.957,9.7,7.95,inactive
PGGT1B (protein geranylgeranyltransferase type I subunit beta),2,-0.143,1.96,4.89,inactive
PGGT1B (protein geranylgeranyltransferase type I subunit beta),3,-0.639,-1.53,3.04,inactive
